Measurements reported in PubChem BioAssay AID1259424 (University of Nebraska Medical Center, 2018).

Test: 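Seek colon cancer survival genes behaving like KSR1, using a six-gene signature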 (primary screen)
Cells: human HCT116 colon cancer cells
Knock-down reagent: siRNA pool against human genes, 50 nM
Read-out: 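Log2 levels of six mRNAs (branched-DNA multiplex), adjusted by two reference genes and the non-targeting median, then scored against the average KSR1 knockdown pattern as Pearson r and euclidean distance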
Scale: mean correlation with KSR1 profile: higher = expression change more like KSR1 knockdown; mean distance from KSR1 profile: higher = expression change less like KSR1 knockdown
In all, the deposit lists about 14,000 reagents; below is a random part of them. 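Higher correlation or smaller distance means closer resemblance to KSR1 loss; control wells, including KSR1 knockdowns, recur on many plates.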 Not all columns of the deposit are shown. The record does not give: the time to read-out.

MAPK1: mean correlation with KSR1 profile = 0.494; mean distance from KSR1 profile = 1.14
RPSA: mean correlation with KSR1 profile = 0.287; mean distance from KSR1 profile = 4.01
MTMR2: mean correlation with KSR1 profile = 0.288; mean distance from KSR1 profile = 2.35
TMEM248: mean correlation with KSR1 profile = -0.244; mean distance from KSR1 profile = 1.81

Records above whose target name starts with M or m (2):
MAPK1: mean correlation with KSR1 profile = 0.494; mean distance from KSR1 profile = 1.14
MTMR2: mean correlation with KSR1 profile = 0.288; mean distance from KSR1 profile = 2.35

Continued:
CLCN1: mean correlation with KSR1 profile = -0.599; mean distance from KSR1 profile = 3.56
WDR76: mean correlation with KSR1 profile = -0.453; mean distance from KSR1 profile = 3.28
DGKH: mean correlation with KSR1 profile = 0.382; mean distance from KSR1 profile = 2.62
ANO3: mean correlation with KSR1 profile = -0.479; mean distance from KSR1 profile = 2.13
SAMD9L: mean correlation with KSR1 profile = -0.246; mean distance from KSR1 profile = 2.6
CHST7: mean correlation with KSR1 profile = -0.868; mean distance from KSR1 profile = 3.39
COL21A1: mean correlation with KSR1 profile = -0.0884; mean distance from KSR1 profile = 3.03
TAF7: mean correlation with KSR1 profile = 0.329; mean distance from KSR1 profile = 2.25
